Laboratory results: PubChem BioAssay AID1224830 (NIAID, 2016)

- Test: 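Host factors that control LPS-induced TNF expression in human macrophages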 (primary screen)
- Cells: human THP-1 monocytic leukaemia cells, TNF dual-luciferase reporter clone, PMA-differentiated to macrophage-like cells
- Reagents: siRNA pool against human genes, 50 nM
- Duration: LPS for 4 h, given about 3 days after siRNA transfection
- Treatment: bacterial LPS (TLR4 ligand), 10 ng/ml
- Measured: 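TNF firefly reporter luminescence divided by renilla, normalised to the plate median, then turned into a robust z-score for each replicate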
- Scale: TNF reporter robust z-score: higher = stronger TNF reporter response to LPS
- Active means: 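Each well counts as active if its z-score is over 2.8 or under -1.5; controls are left without a call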
The whole screen tested about 18,000 reagents; shown is a part drawn at random. Over the whole deposit, about 2,900 (16%) are marked active. 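Calls are made per well; low scores hint the gene aids the LPS response, high scores that it dampens it.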 Entries without a mark were called inactive. Repeated entries: four replicate wells of each siRNA pool. Reagent sequences are not shown.

ECRG4: TNF reporter robust z-score = 0.06
ECRG4: TNF reporter robust z-score = 0.04
ECRG4: TNF reporter robust z-score = 0.28
ECRG4: TNF reporter robust z-score = 0.33
CBLB: TNF reporter robust z-score = 0.87
CBLB: TNF reporter robust z-score = -0.56
CBLB: TNF reporter robust z-score = -0.71
CBLB: TNF reporter robust z-score = -0.42
AICDA: TNF reporter robust z-score = 0.26
AICDA: TNF reporter robust z-score = 0.9
AICDA: TNF reporter robust z-score = 0.36
AICDA: TNF reporter robust z-score = 0.39
EIF2S2: TNF reporter robust z-score = -1.99 (active)
EIF2S2: TNF reporter robust z-score = -1.52 (active)
EIF2S2: TNF reporter robust z-score = -2.09 (active)
EIF2S2: TNF reporter robust z-score = -1.29

The list goes on; the last 6 above are carried over.
AICDA: TNF reporter robust z-score = 0.36
AICDA: TNF reporter robust z-score = 0.39
EIF2S2: TNF reporter robust z-score = -1.99 (active)
EIF2S2: TNF reporter robust z-score = -1.52 (active)
EIF2S2: TNF reporter robust z-score = -2.09 (active)
EIF2S2: TNF reporter robust z-score = -1.29
HIP1R: TNF reporter robust z-score = 0.14
HIP1R: TNF reporter robust z-score = 0.74
HIP1R: TNF reporter robust z-score = 0.23
HIP1R: TNF reporter robust z-score = 1.15
FAM110C: TNF reporter robust z-score = -0.92
FAM110C: TNF reporter robust z-score = -0.88
FAM110C: TNF reporter robust z-score = -0.93
FAM110C: TNF reporter robust z-score = -0.76
POLM: TNF reporter robust z-score = -0.44
POLM: TNF reporter robust z-score = -0.42
POLM: TNF reporter robust z-score = -0.6
POLM: TNF reporter robust z-score = 0.36
PLAAT4: TNF reporter robust z-score = 0.41
PLAAT4: TNF reporter robust z-score = 1.29
PLAAT4: TNF reporter robust z-score = -1.18
PLAAT4: TNF reporter robust z-score = -0.17
TMEM45A: TNF reporter robust z-score = -0.22
TMEM45A: TNF reporter robust z-score = -0.09
TMEM45A: TNF reporter robust z-score = -0.51
TMEM45A: TNF reporter robust z-score = 0.13
UPK1B: TNF reporter robust z-score = 2.12
UPK1B: TNF reporter robust z-score = 0.5
UPK1B: TNF reporter robust z-score = 1.71
UPK1B: TNF reporter robust z-score = 1.91
RPL19P9: TNF reporter robust z-score = -0.53
RPL19P9: TNF reporter robust z-score = 1.56
RPL19P9: TNF reporter robust z-score = 0.59
RPL19P9: TNF reporter robust z-score = 1.15
MGAT1: TNF reporter robust z-score = -1.64 (active)
MGAT1: TNF reporter robust z-score = -1.02
MGAT1: TNF reporter robust z-score = -0.89
MGAT1: TNF reporter robust z-score = -0.39
